# Measurements reported in PubChem BioAssay AID504834 (National Center for Advancing Translational Sciences (NCATS), 2011).
# Hit rate of the full screen: of about 320,000 compounds, about 22,000 (6.9%) were called active. Inconclusive means that the source gave no clear call. Such entries were picked first, then a sample of the others. The call rests on the fitted dose curve; in most records, active means well fitted inhibition curve with a large enough effect; inconclusive means small, poorly fitted or top-dose-only effect, or another doubt; inactive means no such curve, though single readings can be large or run the other way. Potencies beside an inconclusive call are fits to weak or partial responses and may not hold up.
# Assay: Primary qHTS for delayed death inhibitors of the malarial parasite plastid, 96 hour incubation
# Conditions: P. falciparum luciferase reporter growth; series mostly up to 28.7 µM; activity change, negative = inhibition: at the top concentration
# Method in brief: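 Luminescence readout: decreased luciferase signal marks inhibited growth of reporter-expressing P. falciparum in infected red cells (2% hematocrit, 0.05% parasitemia final), exposed to compound two generations (96 h, 37 C, 5% CO2).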
# On the % scale 0 is the no-effect control and ±100 the full control effect; potency means the concentration at half of the fitted maximal effect.
SMILES,Potency,"activity change, negative = inhibition"
Cc1ccccc1C1NC(c2ccccc2C)C([N+](=O)[O-])C(C)(C)C1[N+](=O)[O-] (stereo unspecified),"inconclusive: 13.1 µM [inhibitor, partial curve, poor fit]",
O=C(O)c1cccc(Nc2ccc([N+](=O)[O-])cn2)c1,,inactive: 10.3%
COc1cc([N+](=O)[O-])cc(/C=N/NC(=O)C(C)Nc2cccc(C)c2)c1O (stereo unspecified),,inactive: -11.2%
S=C(Nc1cccc(Br)c1)N1CCn2cccc2C1c1cccnc1 (stereo unspecified),"inconclusive: 10.4 µM [inhibitor, single point]",
Cc1cc2c(c(=O)o1)C(c1cccs1)C(C#N)=C(N)O2 (stereo unspecified),"inconclusive: 11.7 µM [inhibitor, single point]",
Cc1cccc(N2CCN(C(=O)CC(NC(=O)c3ccccc3Cl)c3ccccc3)CC2)c1C (stereo unspecified),"inconclusive: 0.0029 µM [inhibitor, full curve, poor fit]",
O=C(NCCc1ccccn1)c1cc(-c2ccc(Cl)c(Cl)c2Cl)nc2ccccc12,"inconclusive: 18.5 µM [inhibitor, partial curve, poor fit]",
Cc1cc(C(=O)NCC(c2cccs2)N2CCOCC2)ccc1[N+](=O)[O-] (stereo unspecified),,inactive: -1.65%
CCS(=O)(=O)N1Cc2ccccc2CC1C(=O)Nc1cccc(OC)c1 (stereo unspecified),"inconclusive: 3.7 µM [inhibitor, single point]",
CCOc1ccc(N=C2SCCCN2C)cc1,"inconclusive: 1.31 µM [inhibitor, single point]",
CNc1ccc(Br)cc(C(=O)/C=C/c2cc(OC)ccc2OC)c1=O,,inactive: -104%
COC(=O)C(C(C)C)N1CCc2c(C)nc3c(C#N)cnn3c21 (stereo unspecified),"inconclusive: 5.86 µM [inhibitor, partial curve, poor fit]",
S=C(NCc1ccccc1)NCc1ccc(CNC(=S)NCc2ccccc2)cc1,"inconclusive: 10.4 µM [inhibitor, partial curve, poor fit]",
O=C(CCC(=O)N1CCOCC1)Nc1nnc(C2CCCCC2)s1,"inconclusive: 1.65 µM [inhibitor, single point]",
CNc1c(NC(=O)COc2ccc(Cl)cc2)c(=O)oc2ccccc12,"inconclusive: 18.5 µM [inhibitor, single point]",
O=C1CN(C(=O)c2ccccc2F)C(c2ccccc2)c2cc(F)ccc2N1 (stereo unspecified),"inconclusive: 16.5 µM [inhibitor, single point]",
CCc1c(C)nc2cc(-c3cccs3)[nH]n2c1=O,active: 2.08 µM,
Cc1noc(NS(=O)(=O)c2ccc(NC(=O)C(F)(F)F)cc2)c1C,,inactive: -18.3%
CCCCC(CCC(=O)NNC(=O)Cc1ccccc1)C(=O)O (stereo unspecified),"inconclusive: 18.5 µM [inhibitor, single point]",
CCN1C=C(Cc2ccc(OC)cc2)C2=C(C1)C(c1ccc(OC)cc1)C(C#N)=C(N)O2 (stereo unspecified),"inconclusive: 16.5 µM [inhibitor, partial curve, poor fit]",
C=C(C)C1CCC2(C(=O)O)CCC3(C)C(CCC4C5(C)C(C=O)C(O)C(C)(C)C5CCC43C)C12 (stereo unspecified),"inconclusive: 10.4 µM [inhibitor, single point]",
COc1cccc(-c2nc(CS(=O)(=O)CC(=O)NCc3ccccc3OC)c(C)o2)c1,,inactive: 3.05%

SMILES,Potency,"activity change, negative = inhibition"
CCCOc1ccc(C(=O)Nc2ccc(Cl)cn2)cc1,,inactive: 39.5%
CCN(CC)C(=O)/C(=C/c1cn(S(=O)(=O)N(C)C)c2ccccc12)NC(=O)c1ccc(OC)cc1,"inconclusive: 5.22 µM [inhibitor, partial curve, poor fit]",
COc1cc(/C=C/C(=O)Nc2ccc3[nH]c(=O)[nH]c3c2)cc(OC)c1OC,,inactive: -10.4%
O=C(Nc1ccccc1C(=O)N1CCOCC1)c1ccc(CSc2ccccc2)cc1,,inactive: -3.39%
Cc1cc(CNC(=O)CC2C(=O)NCCN2Cc2ccccc2)nn1C (stereo unspecified),"inconclusive: 18.5 µM [inhibitor, single point]",
O=C(NCc1ccccc1)c1nc(-c2cccs2)no1,"inconclusive: 4.15 µM [inhibitor, partial curve, poor fit]",
Cc1ccc(S(=O)(=O)N(C)CCCC(=O)NC(C)(C)CO)cc1,"inconclusive: 4.15 µM [inhibitor, single point]",
COc1cc(C(=O)Nc2ccc(S(=O)(=O)Nc3cc(C)nc(C)n3)cc2)cc(OC)c1OC,,inactive: -3.72%
COc1ccc(-c2c(C#Cc3ccsc3)c3cc(Br)ccc3n2C)cc1,"inconclusive: 9.28 µM [inhibitor, single point]",
Cc1ccc(-c2csc(NC(=O)C3CCN(S(=O)(=O)c4cccs4)CC3)n2)cc1,active: 11.7 µM,
CCCCn1c(/N=C/c2ccc3c(c2)OCO3)nc2ccccc21,"inconclusive: 13.1 µM [inhibitor, single point]",
Cc1ccccc1NC(=O)Cc1c[nH]c2ccccc12,,inactive: -9.32%
Cc1cc(O)c(C(C)C)cc1N=Cc1ccccc1O,"inconclusive: 0.0026 µM [inhibitor, full curve, poor fit]",
Cc1ccc(CC2CC(=O)N(c3cc(Cl)ccn3)C2=O)cc1 (stereo unspecified),"inconclusive: 0.928 µM [inhibitor, partial curve, poor fit]",
O=C(CNC(=O)c1ccncc1)N/N=C/c1ccccn1,"inconclusive: 13.1 µM [inhibitor, partial curve]",
Cc1ccc(OCC(=O)NCCCNC(=O)c2ccco2)cc1,,inactive: -0.982%
CCCNC(=O)c1ccc2c(=O)c(O)c(-c3ccc(C)cc3)[nH]c2c1,"inconclusive: 18.5 µM [inhibitor, single point]",
CC(C)(C)OC(=O)CNC(=O)c1[nH]cnc1C(=O)N[C@@H](Cc1ccccc1)C(=O)OCc1ccccc1,"inconclusive: 16.5 µM [inhibitor, partial curve, poor fit]",
COc1cc(C(O)P(=O)(OC2CCCCC2)c2ccc(N(C)C)cc2)cc(OC)c1OC (stereo unspecified),active: 13.1 µM,
COc1cc(C=O)ccc1OCC(=O)NC(C)(C)C,"inconclusive: 2.33 µM [inhibitor, full curve, poor fit]",
CN(C)c1ccc(C2N(c3ccc(Cl)cc3)C(=O)C3CCCN32)cc1 (stereo unspecified),,inactive: 13.3%
CC1(c2ccccc2)NC(=O)N(CCOc2ccccc2)C1=O (stereo unspecified),,inactive: 4.63%

SMILES,Potency,"activity change, negative = inhibition"
CC[C@@]12C(=O)N(c3ccccc3)C(=O)N1[C@H](c1ccc(Br)cc1)[C@@H]1C(=O)N(C(C)(C)C)C(=O)[C@@H]12,"inconclusive: 18.5 µM [inhibitor, single point]",
Cc1ccc(C)c(S(=O)(=O)N2CCN(C(=O)[C@H](C)N3C(=O)C4CC=CCC4C3=O)CC2)c1 (stereo partly specified),"inconclusive: 18.5 µM [inhibitor, partial curve, poor fit]",
Cc1cc(Cl)ccc1OCC(=O)NCCCCc1ccccc1,,inactive: 117%
CCn1ncc(C2=NOC(C(=O)NCc3ccccc3)C2)c1C (stereo unspecified),"inconclusive: 18.5 µM [inhibitor, single point]",
CCCc1nc2sc3c(SCC(=O)NCc4ccco4)ncnc3c2c2c1CCC2,,inactive: 12.9%
CCCNC(=O)COc1coc(CN2CCN(Cc3ccccc3)CC2)cc1=O,"inconclusive: 16.5 µM [inhibitor, single point]",
CCCC(=O)Nc1ccc(C(=O)NN2C(=O)c3ccccc3C2=O)cc1,"inconclusive: 11.7 µM [inhibitor, single point]",
COc1ccccc1OCCNS(=O)(=O)c1ccc2oc3ccccc3c2c1,active: 10.4 µM,
O=C(Oc1c(CN2CCOCC2)cc(Cl)c2cccnc12)c1ccccc1,"inconclusive: 4.65 µM [inhibitor, partial curve, poor fit]",
Cc1ccc(S(=O)(=O)NCCC(=O)N2CCN(S(=O)(=O)c3cccc(F)c3)CC2)cc1C,"inconclusive: 18.5 µM [inhibitor, partial curve, poor fit]",
CCC[n+]1cn(/C(C(=S)Nc2cccc(Cl)c2C)=C(/[O-])c2ccc(OC)c(OC)c2)c2ccccc21,"inconclusive: 4.15 µM [inhibitor, full curve, poor fit]",
Cc1nn(-c2ccccc2)c(C)c1C(=O)Nc1ccc(N2CCOCC2)cc1,"inconclusive: 11.7 µM [inhibitor, single point]",
O=C(COc1ccc(Cl)cc1)Nc1ccc(CN2CCOCC2)cc1,"inconclusive: 4.15 µM [inhibitor, full curve, poor fit]",
FC(F)(F)c1ccccc1N/N=C/c1cccnc1,"inconclusive: 10.4 µM [inhibitor, single point]",
COc1ccccc1N1CCN(C(=O)c2sc3nc4n(c(=O)c3c2C)CCC4)CC1,"inconclusive: 3.7 µM [inhibitor, partial curve]",
CCOC(=O)c1c(C)[nH]c(C)c1C(=O)CSc1nc2ccccc2c(=O)n1-c1ccccc1C,"inconclusive: 9.28 µM [inhibitor, partial curve, poor fit]",
N#C/C(=C\c1c(Cl)cccc1Cl)c1nn(-c2ccccc2)c(-n2cccc2)c1C#N,"inconclusive: 18.5 µM [inhibitor, single point]",
O=C(COC(=O)COc1ccccc1)Nc1cccc([N+](=O)[O-])c1,,inactive: 56.8%
N#Cc1nc(-c2cccs2)oc1NCCCN1CCOCC1,"inconclusive: 9.28 µM [inhibitor, partial curve, poor fit]",
COc1ccc(NC(=S)N(CCCN2CCOCC2)Cc2ccccn2)cc1,"inconclusive: 8.28 µM [inhibitor, single point]",
O=C(NCCSc1ccccn1)c1ccc(Cl)cc1Cl,"inconclusive: 9.28 µM [inhibitor, partial curve, poor fit]",
COC1CCN(C(=O)c2ccc(OC3CCN(Cc4ccccn4)CC3)cc2)CC1,"inconclusive: 13.1 µM [inhibitor, single point]",

# A different layout for part of the listing above:
SMILES | Potency | activity change, negative = inhibition
Cc1ccc(CC2CC(=O)N(c3cc(Cl)ccn3)C2=O)cc1 (stereo unspecified) | inconclusive: 0.928 µM [inhibitor, partial curve, poor fit] | 
O=C(CNC(=O)c1ccncc1)N/N=C/c1ccccn1 | inconclusive: 13.1 µM [inhibitor, partial curve] | 
Cc1ccc(OCC(=O)NCCCNC(=O)c2ccco2)cc1 |  | inactive: -0.982%
CCCNC(=O)c1ccc2c(=O)c(O)c(-c3ccc(C)cc3)[nH]c2c1 | inconclusive: 18.5 µM [inhibitor, single point] | 
